# Results are given in words; binding and its absence hold for the method and conditions named. In cells and extracts the contact can be indirect. Some binding calls cover weakened binding; strength is not graded here.
# Amino acid sequences for entries named in this document (tags omitted).
# UniProt Q14980: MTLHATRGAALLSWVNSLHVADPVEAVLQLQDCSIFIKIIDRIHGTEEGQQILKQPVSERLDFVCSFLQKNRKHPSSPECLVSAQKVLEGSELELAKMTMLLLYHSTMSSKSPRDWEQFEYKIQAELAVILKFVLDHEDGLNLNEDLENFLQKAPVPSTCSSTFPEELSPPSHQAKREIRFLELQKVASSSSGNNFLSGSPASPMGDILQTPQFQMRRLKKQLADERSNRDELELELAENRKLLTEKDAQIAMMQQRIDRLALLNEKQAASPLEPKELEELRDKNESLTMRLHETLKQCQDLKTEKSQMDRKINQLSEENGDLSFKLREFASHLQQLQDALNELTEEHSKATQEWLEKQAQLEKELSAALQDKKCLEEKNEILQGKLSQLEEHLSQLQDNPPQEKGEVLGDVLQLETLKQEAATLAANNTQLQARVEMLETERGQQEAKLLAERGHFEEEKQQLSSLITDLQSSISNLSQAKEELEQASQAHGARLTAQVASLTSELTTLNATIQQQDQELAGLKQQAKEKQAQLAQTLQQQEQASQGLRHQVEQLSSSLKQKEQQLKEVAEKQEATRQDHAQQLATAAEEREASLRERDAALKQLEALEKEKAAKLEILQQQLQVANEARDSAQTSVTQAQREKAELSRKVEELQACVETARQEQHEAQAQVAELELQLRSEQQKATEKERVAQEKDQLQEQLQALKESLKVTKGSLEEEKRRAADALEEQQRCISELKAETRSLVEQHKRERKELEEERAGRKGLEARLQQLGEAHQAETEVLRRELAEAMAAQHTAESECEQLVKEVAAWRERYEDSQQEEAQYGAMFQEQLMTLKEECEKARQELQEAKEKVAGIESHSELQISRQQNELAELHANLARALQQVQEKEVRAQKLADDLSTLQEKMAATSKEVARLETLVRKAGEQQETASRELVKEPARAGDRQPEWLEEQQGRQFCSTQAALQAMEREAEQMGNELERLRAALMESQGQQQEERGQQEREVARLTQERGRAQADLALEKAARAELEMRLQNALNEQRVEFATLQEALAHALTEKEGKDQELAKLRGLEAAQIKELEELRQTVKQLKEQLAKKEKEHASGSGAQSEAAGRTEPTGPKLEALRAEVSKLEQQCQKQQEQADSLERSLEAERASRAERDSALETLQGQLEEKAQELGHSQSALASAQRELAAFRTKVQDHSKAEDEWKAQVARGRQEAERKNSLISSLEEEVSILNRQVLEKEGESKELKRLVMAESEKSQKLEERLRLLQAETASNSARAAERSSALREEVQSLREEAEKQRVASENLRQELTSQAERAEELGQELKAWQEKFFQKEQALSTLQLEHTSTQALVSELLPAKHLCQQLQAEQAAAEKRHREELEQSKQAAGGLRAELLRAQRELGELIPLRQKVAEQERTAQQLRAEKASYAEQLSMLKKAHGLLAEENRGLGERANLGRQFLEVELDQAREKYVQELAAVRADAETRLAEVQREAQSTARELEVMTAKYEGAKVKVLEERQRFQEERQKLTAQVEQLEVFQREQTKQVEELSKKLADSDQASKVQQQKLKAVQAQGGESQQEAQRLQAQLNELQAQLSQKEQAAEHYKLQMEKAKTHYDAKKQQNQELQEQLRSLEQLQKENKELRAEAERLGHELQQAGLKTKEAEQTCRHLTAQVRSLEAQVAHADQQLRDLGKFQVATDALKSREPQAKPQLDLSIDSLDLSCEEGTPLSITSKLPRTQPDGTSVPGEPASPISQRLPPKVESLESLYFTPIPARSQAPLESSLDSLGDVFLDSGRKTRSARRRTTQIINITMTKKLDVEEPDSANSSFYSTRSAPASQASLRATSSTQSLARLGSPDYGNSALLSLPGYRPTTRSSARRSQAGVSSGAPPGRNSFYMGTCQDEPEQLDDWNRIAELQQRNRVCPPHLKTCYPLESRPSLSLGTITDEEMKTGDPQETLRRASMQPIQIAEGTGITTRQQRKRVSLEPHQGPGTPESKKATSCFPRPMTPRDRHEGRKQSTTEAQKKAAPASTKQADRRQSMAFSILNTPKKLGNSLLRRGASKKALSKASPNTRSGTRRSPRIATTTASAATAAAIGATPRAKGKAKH
# UniProt O60264: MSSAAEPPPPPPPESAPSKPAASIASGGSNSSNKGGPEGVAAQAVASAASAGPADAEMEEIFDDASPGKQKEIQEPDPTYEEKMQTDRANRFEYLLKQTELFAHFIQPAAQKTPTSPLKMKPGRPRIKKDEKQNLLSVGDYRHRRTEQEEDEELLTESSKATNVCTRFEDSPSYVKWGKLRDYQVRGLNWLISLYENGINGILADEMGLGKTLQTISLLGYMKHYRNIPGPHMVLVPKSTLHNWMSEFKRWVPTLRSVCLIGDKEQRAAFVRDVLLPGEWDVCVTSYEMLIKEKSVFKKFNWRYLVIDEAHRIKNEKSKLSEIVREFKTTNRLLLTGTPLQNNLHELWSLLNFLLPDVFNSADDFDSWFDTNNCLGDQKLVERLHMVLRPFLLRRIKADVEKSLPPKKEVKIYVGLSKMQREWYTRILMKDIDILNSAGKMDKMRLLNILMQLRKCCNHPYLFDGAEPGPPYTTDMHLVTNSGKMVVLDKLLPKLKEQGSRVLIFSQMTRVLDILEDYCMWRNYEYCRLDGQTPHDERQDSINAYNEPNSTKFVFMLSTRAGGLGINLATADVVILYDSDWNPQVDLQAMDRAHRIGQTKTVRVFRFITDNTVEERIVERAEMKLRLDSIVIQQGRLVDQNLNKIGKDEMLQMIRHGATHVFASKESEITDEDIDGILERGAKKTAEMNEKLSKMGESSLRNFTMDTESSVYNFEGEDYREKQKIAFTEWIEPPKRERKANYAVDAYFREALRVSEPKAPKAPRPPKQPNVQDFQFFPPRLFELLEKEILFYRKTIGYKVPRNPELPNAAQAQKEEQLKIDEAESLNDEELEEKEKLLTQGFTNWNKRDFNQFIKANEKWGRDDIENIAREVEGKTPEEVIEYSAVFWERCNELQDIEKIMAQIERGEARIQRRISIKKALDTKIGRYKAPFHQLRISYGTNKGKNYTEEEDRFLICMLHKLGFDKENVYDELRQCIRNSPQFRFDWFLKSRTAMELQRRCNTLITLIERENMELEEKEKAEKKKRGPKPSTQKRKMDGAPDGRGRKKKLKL
# UniProt P51532: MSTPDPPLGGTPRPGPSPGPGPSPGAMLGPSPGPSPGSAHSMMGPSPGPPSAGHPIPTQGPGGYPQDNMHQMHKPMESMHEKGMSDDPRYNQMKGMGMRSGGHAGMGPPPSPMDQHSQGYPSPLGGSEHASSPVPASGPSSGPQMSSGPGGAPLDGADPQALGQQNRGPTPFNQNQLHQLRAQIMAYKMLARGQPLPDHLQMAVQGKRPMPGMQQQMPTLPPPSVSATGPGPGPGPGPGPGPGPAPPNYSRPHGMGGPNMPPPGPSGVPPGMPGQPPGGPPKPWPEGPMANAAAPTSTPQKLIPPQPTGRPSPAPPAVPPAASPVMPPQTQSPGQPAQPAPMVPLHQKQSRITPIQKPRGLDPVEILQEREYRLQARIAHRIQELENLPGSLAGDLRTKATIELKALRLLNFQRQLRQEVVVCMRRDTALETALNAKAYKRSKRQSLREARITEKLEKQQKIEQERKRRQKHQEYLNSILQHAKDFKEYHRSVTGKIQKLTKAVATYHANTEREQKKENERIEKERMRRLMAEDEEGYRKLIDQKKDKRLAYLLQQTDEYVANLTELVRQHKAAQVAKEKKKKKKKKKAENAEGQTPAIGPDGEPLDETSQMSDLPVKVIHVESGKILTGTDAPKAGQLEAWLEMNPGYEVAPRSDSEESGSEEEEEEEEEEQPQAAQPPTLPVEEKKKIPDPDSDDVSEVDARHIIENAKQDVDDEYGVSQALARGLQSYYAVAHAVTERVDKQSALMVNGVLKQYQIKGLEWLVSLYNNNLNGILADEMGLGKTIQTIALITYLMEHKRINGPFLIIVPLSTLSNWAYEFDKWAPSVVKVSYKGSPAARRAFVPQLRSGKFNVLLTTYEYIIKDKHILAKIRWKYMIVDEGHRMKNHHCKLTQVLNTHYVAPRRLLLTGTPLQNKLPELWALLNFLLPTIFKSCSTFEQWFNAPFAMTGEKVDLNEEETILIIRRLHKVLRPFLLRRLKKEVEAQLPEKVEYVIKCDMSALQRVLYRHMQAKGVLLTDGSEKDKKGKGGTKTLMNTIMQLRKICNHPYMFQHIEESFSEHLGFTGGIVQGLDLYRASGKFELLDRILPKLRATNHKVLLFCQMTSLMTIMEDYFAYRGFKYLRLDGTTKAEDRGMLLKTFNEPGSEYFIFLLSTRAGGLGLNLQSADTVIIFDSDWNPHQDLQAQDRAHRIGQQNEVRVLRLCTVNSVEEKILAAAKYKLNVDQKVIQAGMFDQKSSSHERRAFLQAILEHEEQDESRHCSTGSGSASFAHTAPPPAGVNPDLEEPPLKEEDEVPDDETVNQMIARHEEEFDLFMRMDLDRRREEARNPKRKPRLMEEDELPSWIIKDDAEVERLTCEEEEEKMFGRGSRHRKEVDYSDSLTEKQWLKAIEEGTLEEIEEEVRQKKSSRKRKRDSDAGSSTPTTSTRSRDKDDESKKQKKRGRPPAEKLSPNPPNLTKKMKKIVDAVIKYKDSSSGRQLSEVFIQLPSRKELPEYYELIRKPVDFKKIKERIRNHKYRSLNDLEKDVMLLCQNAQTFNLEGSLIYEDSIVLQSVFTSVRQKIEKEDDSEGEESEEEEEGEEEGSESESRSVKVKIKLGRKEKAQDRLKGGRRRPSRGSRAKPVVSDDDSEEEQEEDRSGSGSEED
# B1: Williams Syndrome Transcription Factor (WSTF) (protein, UniProt Q9UIG0 1-1483)
# chain: MAPLLGRKPFPLVKPLPGEEPLFTIPHTQEAFRTREEYEARLERYSERIWTCKSTGSSQLTHKEAWEEEQEVAELLKEEFPAWYEKLVLEMVHHNTASLEKLVDTAWLEIMTKYAVGEECDFEVGKEKMLKVKIVKIHPLEKVDEEATEKKSDGACDSPSSDKENSSQIAQDHQKKETVVKEDEGRRESINDRARRSPRKLPTSLKKGERKWAPPKFLPHKYDVKLQNEDKIISNVPADSLIRTERPPNKEIVRYFIRHNALRAGTGENAPWVVEDELVKKYSLPSKFSDFLLDPYKYMTLNPSTKRKNTGSPDRKPSKKSKTDNSSLSSPLNPKLWCHVHLKKSLSGSPLKVKNSKNSKSPEEHLEEMMKMMSPNKLHTNFHIPKKGPPAKKPGKHSDKPLKAKGRSKGILNGQKSTGNSKSPKKGLKTPKTKMKQMTLLDMAKGTQKMTRAPRNSGGTPRTSSKPHKHLPPAALHLIAYYKENKDREDKRSALSCVISKTARLLSSEDRARLPEELRSLVQKRYELLEHKKRWASMSEEQRKEYLKKKREELKKKLKEKAKERREKEMLERLEKQKRYEDQELTGKNLPAFRLVDTPEGLPNTLFGDVAMVVEFLSCYSGLLLPDAQYPITAVSLMEALSADKGGFLYLNRVLVILLQTLLQDEIAEDYGELGMKLSEIPLTLHSVSELVRLCLRRSDVQEESEGSDTDDNKDSAAFEDNEVQDEFLEKLETSEFFELTSEEKLQILTALCHRILMTYSVQDHMETRQQMSAELWKERLAVLKEENDKKRAEKQKRKEMEAKNKENGKVENGLGKTDRKKEIVKFEPQVDTEAEDMISAVKSRRLLAIQAKKEREIQEREMKVKLERQAEEERIRKHKAAAEKAFQEGIAKAKLVMRRTPIGTDRNHNRYWLFSDEVPGLFIEKGWVHDSIDYRFNHHCKDHTVSGDEDYCPRSKKANLGKNASMNTQHGTATEVAVETTTPKQGQNLWFLCDSQKELDELLNCLHPQGIRESQLKERLEKRYQDIIHSIHLARKPNLGLKSCDGNQELLNFLRSDLIEVATRLQKGGLGYVEETSEFEARVISLEKLKDFGECVIALQASVIKKFLQGFMAPKQKRRKLQSEDSAKTEEVDEEKKMVEEAKVASALEKWKTAIREAQTFSRMHVLLGMLDACIKWDMSAENARCKVCRKKGEDDKLILCDECNKAFHLFCLRPALYEVPDGEWQCPACQPATARRNSRGRNYTEESASEDSEDDESDEEEEEEEEEEEEEDYEVAGLRLRPRKTIRGKHSVIPPAARSGRRPGKKPHSTRRSQPKAPPVDDAEVDELVLQTKRSSRRQSLELQKCEEILHKIVKYRFSWPFREPVTRDEAEDYYDVITHPMDFQTVQNKCSCGSYRSVQEFLTDMKQVFTNAEVYNCRGSHVLSCMVKTEQCLVALLHKHLPGHPYVRRKRKKFPDRLAEDEGDSEPEAVGQSRGRRQKK
# Experiments:
# [1] = target: nuclear mitotic apparatus protein (NuMA) (human (endogenous in HMT-3522 S1, T4-2 and U2OS)) (UniProt Q14980); assay: FRET or BRET; fluorescence lifetime imaging of fixed U2OS cells, nonirradiated or irradiated (10 Gy); SNF2h antibodies with Alexa Fluor 488 (donor), NuMA antibodies with Alexa Fluor 555 (acceptor)
# [2] = target: nuclear mitotic apparatus protein (NuMA) (human (endogenous in HMT-3522 S1, T4-2 and U2OS)) (UniProt Q14980); assay: co-IP; nuclear extracts (1 mg) of non-neoplastic HMT-3522 S1 and malignant T4-2 cells incubated with NuMA or SNF2h antibodies overnight at 4°C, Universal Magnetic Co-IP kit, western blot; T4-2 cells mock irradiated or exposed to 3 Gy and left 30 min (SNF2h in the NuMA IP increased by 2-fold after irradiation)
# [3] = target: ISWI ATPase SNF2h/SMARCA5 (human (endogenous in HMT-3522 S1, T4-2 and U2OS)) (UniProt O60264); assay: as above
Molecule,binding [1],binding [2],binding [3]
ISWI ATPase SNF2h/SMARCA5 (from UniProt O60264 1-1052),binds,binds,
SWI/SNF family BRG1 ATPase (from UniProt P51532 1-1647),,no binding,
nuclear mitotic apparatus protein (NuMA) (from UniProt Q14980 1-2115),,,binds
B1,,binds,

# Source: article PMC4041463
